Source: PubChem BioAssay AID2685 (National Center for Advancing Translational Sciences (NCATS), 2010)
The list shows a part of the results. Further columns of the screen follow, without active or inactive calls. The list favours compounds with an active or inconclusive main result. Potencies come from curve fits of mixed quality, noted in brackets.

Assay: qHTS Assay for Lipid Storage Modulators in Drosophila S3 Cells;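 as to cell number change: cells counted by Cell Tracker Red CMTPX staining in the red channel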
Conditions: BODIPY lipid droplet fluorescence, 18-24 h; for cell number change: measured here: cell count max response, cells fed with added oleic acid
Method in brief: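 Drosophila S3 cells got compounds at several concentrations plus oleic acid (400 uM solution). Laser-scanning cytometry with 488 nm excitation read lipid droplets at 500-530 nm and cells at 575-640 nm. Percent activity was relative to 20 uM Triacsin C.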

[1] = measured here: cell number channel AC50, cells fed with added oleic acid
[2] = measured here: lipid fluorescence (Fed channel) AC50, cells fed with added oleic acid

Compound	cell number change [%]	AC50 [1]	AC50 [2]
Cc1noc(NS(=O)(=O)c2ccc(NC(=O)C34CC5CC(C3)CC(n3cnc(Cl)n3)(C5)C4)cc2)c1C	-42.1	29.1 µM [falling, single point]	
Cc1cnc(C(=O)OC(C)C(=O)c2c(C)[nH]c3ccccc23)cn1 (stereo not given)	48.7	2.06 µM [rising, full curve]	2.59 µM [rising, full curve]
COC(=O)C1=C(C(=O)OC)[C@@H]2Nc3ccccc3[C@@]23C[C@@H](C(=O)OC)N(C(C)=O)C3=N1	-12.1	5.17 µM [falling, partial curve]	
CC(C)NCC(=O)NC12CC3CC(CC(C3)C1)C2	-87.5	29.1 µM [falling, single point]	20.6 µM [falling, single point]
COCCCNc1oc(-c2ccccc2OC)nc1C#N	40	29.1 µM [rising, single point]	
CC1CCCCN1S(=O)(=O)c1cnc(Cl)c(Br)c1 (stereo not given)	-8.57		29.1 µM [falling, single point]
CC(C)(C)c1csc(NC(=O)Cc2ccc(S(=O)(=O)N3CCOCC3)s2)n1	19.3		32.6 µM [falling, single point]
Cn1c(CN2CCOCC2)nc2cc(NC(=O)c3ccccc3Cl)ccc21	88	23.1 µM [rising, partial curve]	0.58 µM [falling, single point]
CC(C)c1[nH]nc2c1C(c1cccs1)C(C#N)=C(N)O2 (stereo not given)	-20.7		18.4 µM [falling, single point]
Cc1ccc(-c2nc(N)sc2C)cc1	-2.8		
Cc1ccc(NC(=O)NC2C(NC(=O)Nc3ccc(C)cc3)N(C)C(=O)N2C)cc1 (stereo not given)	3.56		0.58 µM [rising, single point]
CC(C)(C)OC(=O)NNC(=O)NC12CC3CC(CC(C3)C1)C2	-53.1	16.4 µM [falling, single point]	0.116 µM [rising, full curve, poor fit]
O=C(N/N=C/c1ccc([N+](=O)[O-])s1)c1ccncc1	-4.48		
CCOC(=O)N1CCC(=NNC(=O)Cn2ccc(C(F)(F)F)n2)CC1	60.4	32.6 µM [rising, single point]	
CCc1nc2ccccc2c2nc3ccccc3n12	48.4	1.84 µM [rising, single point]	0.731 µM [rising, single point]
COc1ccc(OCC(=O)Nc2cc(OC)ccc2N2CCCCC2)cc1	1.71		3.66 µM [rising, full curve]
C=CC[n+]1c(/C=C2\C=Cc3cc(C)ccc3N2CC)ccc2ccccc21	-12.9		0.13 µM [rising, full curve, poor fit]
O=C(COc1cc(O)c2c(=O)cc(-c3ccccc3)oc2c1)c1ccc(F)cc1	-21.9		4.11 µM [falling, full curve]
O=C(c1ccco1)N1CCN(S(=O)(=O)c2ccc(S(=O)(=O)NC3CCCC3)cc2)CC1		6.51 µM [rising, single point]	
O=C(Cn1ncc2c([nH]c3ccccc32)c1=O)N1CCc2ccccc2C1	19.1		29.1 µM [rising, single point]
CC1(C)CC(=O)C2=C(C1)c1c(ccc3ccccc13)NC2c1ccco1 (stereo not given)	-12.2		16.4 µM [rising, partial curve]

Compound	cell number change [%]	AC50 [1]	AC50 [2]
COc1ccccc1S(=O)(=O)NCc1ccc(C(=O)N(C)Cc2ccc(F)cc2)cc1	2.6	6.51 µM [falling, single point]	
O=C(CSc1cccc[n+]1[O-])Nc1cc(S(=O)(=O)N2CCOCC2)ccc1N1CCOCC1	17.7		
COc1ccc(-n2c(=S)[nH]c3cc(C(=O)Nc4cc(C(N)=O)ccc4OC)ccc3c2=O)c(OC)c1	77.8	18.4 µM [rising, partial curve]	8.2 µM [rising, partial curve]
Cc1ccsc1C(=O)NCc1ccc(F)cc1	-4.78		6.51 µM [falling, single point]
COc1ccccc1CNc1cc(C)ccn1	27.9		0.58 µM [rising, single point]
O=C1CN(c2nc(-c3ccccc3)c3cc(Br)ccc3n2)c2ccccc2N1		2.31 µM [rising, single point]	
CCOC(=O)c1ccccc1NC(=O)COC(=O)CC1CCCCC1	34.1	11.6 µM [rising, partial curve, poor fit]	25.9 µM [rising, partial curve]
COc1cc(C(=O)NCc2cn3cccc(C)c3n2)cc(OC)c1OC	72	20.6 µM [rising, single point]	29.1 µM [rising, single point]
CN1CCN(C2CCCCC2NS(=O)(=O)c2ccccc2)CC1 (stereo not given)	-2.36		1.3 µM [falling, full curve]
CC1CCc2c(sc3nn[nH]c(=O)c23)C1 (stereo not given)	-22.8		0.116 µM [falling, full curve, poor fit]
O=C(Nc1ccc(S(=O)(=O)N2CCCC2)cc1)c1cc(F)c(F)cc1Cl	-14.7		0.116 µM [falling, full curve, poor fit]
Cc1ccc(C)c(NC(=O)COC(=O)CNC(=O)C2CCCCC2)c1	12.1		0.82 µM [rising, full curve]
O=C(CCSc1nccn1Cc1ccccc1)N1CCOCC1	-78.8	25.9 µM [falling, partial curve, poor fit]	0.259 µM [falling, full curve, poor fit]
Cc1cccc(OCC(=O)N(Cc2ccco2)C2CCS(=O)(=O)C2)c1C (stereo not given)	12.4		10.3 µM [rising, partial curve, poor fit]
NC(=O)NC(=O)COC(=O)CC12CC3CC(CC(C3)C1)C2	-12		6.51 µM [rising, partial curve]
COc1ccc(F)cc1C1=CC(=O)C[C@H](c2ccc3c(c2)OCO3)C1	4.59		
CCOc1ccc(NC(=O)Nc2cccc(C)n2)cc1	-30.6	29.1 µM [falling, single point]	
Cc1ccccc1OCCSc1nc2ccccc2n1CCC(=O)O	-12.9		
Nc1cc[n+](CC(=O)c2ccc3c(c2)OCCO3)cc1	-22.4		
O=C(NNC(=O)c1cccnc1SCc1cccc([N+](=O)[O-])c1)c1ccccn1	-8.57		32.6 µM [falling, single point]
CCOc1ccc(C(O)Cn2c(=N)n(CCN3CCCCC3)c3ccccc32)cc1 (stereo not given)	-34.4	29.1 µM [falling, single point]	29.1 µM [falling, single point]

Structures above that contain a tert-butyl group, in the order listed:
Compound	cell number change [%]	AC50 [1]	AC50 [2]
CC(C)(C)c1csc(NC(=O)Cc2ccc(S(=O)(=O)N3CCOCC3)s2)n1	19.3		32.6 µM [falling, single point]
CC(C)(C)OC(=O)NNC(=O)NC12CC3CC(CC(C3)C1)C2	-53.1	16.4 µM [falling, single point]	0.116 µM [rising, full curve, poor fit]

Following part

Compound	cell number change [%]	AC50 [1]	AC50 [2]
COc1ccc(-c2cc(C(=O)Nc3cc(C)n(Cc4ccc(Cl)cc4)n3)no2)cc1OC	-3.48		
O=S(=O)(c1ccc2c(c1)OCCO2)N1CCC(n2nnc3cc(C(F)(F)F)ccc32)CC1	-22.4		
Cc1ccc(O)c(N=CC2=C(O)c3ccccc3C2=O)c1	48.3	11.6 µM [rising, partial curve]	
O=C(COc1ncnc2ccccc12)NCC1CCCO1 (stereo not given)	62.7		0.164 µM [falling, partial curve, poor fit]
COc1ccc(CC(=O)NCc2ccc(Cl)cc2)cc1S(=O)(=O)N1CCOCC1	-7.37		20.6 µM [rising, single point]
CC(C)(C)c1ccc(OCc2cnc(Cl)s2)cc1	-21.5		
O=C(CCCn1c(=O)[nH]c2ccccc2c1=O)NC1CCCCCC1	-55.6	18.4 µM [falling, single point]	29.1 µM [falling, single point]
C=CCN1C(=O)C(C)S/C1=N\S(=O)(=O)c1ccc(Cl)cc1 (stereo not given)	-16.7	6.51 µM [falling, single point]	
CCOc1cc2c(cc1/C=C1/NC(=O)N(CC(=O)OC)C1=O)OCO2	-44.4	0.0058 µM [falling, full curve, poor fit]	7.31 µM [falling, partial curve]
COc1ccc(-n2nc3c(c2NC(=O)c2ccc(N4C(=O)CCC4=O)cc2)CSC3)cc1	-19.2		2.06 µM [rising, partial curve]
COc1ccc(CCN(C)C(=O)COc2ccc(N(C)S(=O)(=O)c3ccc(C)cc3)cc2)cc1OC	14.5	3.26 µM [rising, single point]	1.64 µM [rising, partial curve]
COc1ccccc1OCC(=O)Nc1ccc(S(=O)(=O)N2CCCCCC2)cc1			0.00461 µM [rising, full curve, poor fit]
Cc1ccc(C)n1-c1cccc(NC(=O)c2ccccc2)c1	5.7		11.6 µM [rising, partial curve]
COc1ccc2nc(SCC(=O)NC3CC3)c(C#N)cc2c1	117	14.6 µM [rising, partial curve]	
COC(=O)/C(=C\Nc1ccccc1)NC(=O)c1ccc(Cl)cc1Cl	45.3	29.1 µM [rising, single point]	
Cc1ccc(-n2nnnc2-c2nc3ccccc3s2)cc1	25.7		
Cc1ccc(-n2c(COc3cccc(C)c3)n[nH]c2=S)cc1	11.1		
Cc1ccccc1CNC(=O)C1CCC(=O)N(C2CCCCCC2)C1 (stereo not given)			6.51 µM [rising, single point]
COc1cccc(C(=O)NCCS(=O)(=O)NCCCc2ccccc2)c1	49.7	13 µM [rising, partial curve, poor fit]	
